The nature of this assay: qHTS Assay to Find Inhibitors of Chronic Active B-Cell Receptor Signaling. Particulars: ABC-DLBCL IkBa-CBG/CBR reporter, luminescence ratio (green luciferase fused to IkBa over red control in TMD8 lymphoma cells), 4 h. The gist of the method: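 TMD8 human ABC-DLBCL cells with doxycycline-inducible IκBα–green luciferase fusion and unfused red luciferase, in 0.5% FBS medium; compounds up to 46 uM, 4 h at 37C. Green/red luminescence ratio, filter-overlap corrected, fitted to concentration-response curves.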

The mark [1] stands for this setting: measured here: CBR red luminescence, cell number.
Where [2] appears, read: measured here: IkBa-CBG green luminescence.

Some of the results follow. Shown are side measurements of this screen, not its main read-out; they come without a call. The list favours compounds with an active or inconclusive main result. The note in brackets gives the kind of curve behind each potency; many fits are weak.

What is called AC50 is the concentration giving half of the maximal activity seen. Consider `O=C(Nc1nc2c(s1)COc1ccccc1-2)c1cccs1`, for which the AC50 is, setting by setting: under setting [1], 9.2 µM [falling, partial curve]; under setting [2], 0.184 µM [rising, full curve, poor fit].
For `COc1ccc(N(CC(=O)Nc2cccc(N(C)S(C)(=O)=O)c2)S(=O)(=O)c2ccccc2)cc1Cl`, under setting [1], the AC50 is 1.12 µM [falling, full curve, poor fit].
Same read-out and setting: in the case of `Cc1n(Cc2ccccc2)c2ccccc2[n+]1Cc1ccccc1` it was 8.91 µM [falling, partial curve]; in that of `Cc1nn(-c2ccc(Cl)cc2)c(NC(=O)C(C)C)c(-c2ccccc2)c1=O`, 5.62 µM [rising, single point].
As for `O=C(NCCNC(=O)c1cc(OCC(F)(F)F)ccc1OCC(F)(F)F)Nc1ccc(Cl)cc1`, under setting [1], the AC50 was 0.501 µM [rising, partial curve, poor fit].
Still for that read-out and setting: in the case of `C[C@]12CCC3C(CC=C4C[C@@H](O)CC[C@@]43C)C1CCC2[C@]1(C)CCC(=O)O1` (some centres undefined) it was 11.6 µM [rising, partial curve, poor fit]; in that of `O=C(Nc1nc(-c2ccc(Cl)s2)cs1)c1cccs1`, 12.6 µM [falling, partial curve, poor fit]; in that of `O=C(O)c1cccc(S(=O)(=O)Nc2ccc3c(c2)OCO3)c1`, 17.8 µM [rising, single point].
As to `Cc1ccccc1-n1sc2cc(F)ccc2c1=O`, the AC50 under setting [1] was 11.2 µM [falling, partial curve] and the AC50 under setting [2] was 5.62 µM [falling, single point].
`O=C(Nc1ccc(F)cc1F)c1noc2c1CCC2`: the concentration at half-maximal activity (AC50) under setting [1] is 10.3 µM [falling, partial curve, poor fit].
Take `CCCN(C1CCS(=O)(=O)C1)S(=O)(=O)c1cc(OC)ccc1OC` (centres undefined): the concentration at half-maximal activity (AC50) under setting [1] is 20.6 µM [rising, single point].
Turning to `O=C(COC(=O)c1cccs1)NCC1CCCCC1`, under setting [1], the half-maximal activity concentration (AC50) was 35.5 µM [rising, single point].
Turning to `Cc1cccnc1NC(=O)CNC(=O)c1sc2ccccc2c1Cl`, the concentration at half-maximal activity (AC50) under setting [1] is 0.651 µM [falling, partial curve, poor fit].
Consider `N/C(=N\OC(=O)c1ccc(Cl)cc1Cl)c1ccccc1`, for which the AC50 under setting [1] was 1.12 µM [rising, partial curve, poor fit].
For `O=C(Nc1ccc(Cl)cc1C(=O)NCC1CCCO1)c1ccc(Cl)cc1Cl` (centres undefined), the half-maximal activity concentration (AC50) under setting [1] is 0.517 µM [falling, partial curve, poor fit].
With `Cc1cccc(-c2nc3ccc(C(=O)NCCN4CCN(C)CC4)cc3nc2-c2cccc(C)c2)c1`, the half-maximal activity concentration (AC50) under setting [1] is 35.5 µM [falling, single point].
As to `COc1cc(OC)cc(-c2cc3cc4c(cc3cn2)OCO4)c1`, under setting [2], the AC50 is 9.2 µM [falling, partial curve].
Regarding `COc1ccccc1C(=O)Nc1cccc(C(=O)N2CCOCC2)c1`, the AC50 under setting [1] was 3.16 µM [falling, partial curve, poor fit].
Same read-out and setting: in the case of `C=CCn1cc(C(=O)NCCCOCC)c(=O)c2cc(S(=O)(=O)N(CC)CC)ccc21` it was 4.47 µM [rising, single point]; in that of `COc1c(O)ccc(/C=N\NC(=O)c2ccc3c(c2)OCO3)c1[N+](=O)[O-]`, 11.2 µM [falling, single point]; in that of `COc1ccc(C(C(=O)NCc2ccccc2)N(Cc2cccnc2)C(=O)c2snc(C(N)=O)c2N)cc1OC` (centres undefined), 31.6 µM [rising, single point].
Take `O=C(NC(C(=O)c1ccccc1)n1ccc(=O)[nH]c1=O)c1ccccc1` (centres undefined): the half-maximal activity concentration (AC50) under setting [1] is 18.4 µM [falling, single point].
On the same count and under the same terms, the result for `Cc1cc(C(=O)N/N=C2\CC(=O)CC(C)(C)C2)c2ccccc2n1` reads 6.51 µM [rising, partial curve, poor fit]; that for `CCOC(=O)N1CCN(S(=O)(=O)c2ccc(C(=O)Nc3nc4ccccc4s3)cc2)CC1`, 0.316 µM [falling, full curve, poor fit].
For the compound `CN(C)c1ccc(/C=C(/C#N)C(=O)NCc2ccccc2)o1`, the AC50 under setting [1] was 18.4 µM [falling, single point].
On the same count and under the same terms, the result for `O=C(NCCCN1CCCC1=O)C(=O)NCC1OCCN1S(=O)(=O)c1ccc(Br)cc1` (centres undefined) reads 10 µM [falling, partial curve, poor fit].
`Cc1cnc(NC(=O)c2sc(Nc3ccccc3)nc2N)o1`: the half-maximal activity concentration (AC50) under setting [1] was 2.82 µM [falling, full curve, poor fit].
Same read-out and setting: in the case of `CC(=O)N1CCC(=NNc2ccc(S(N)(=O)=O)cc2[N+](=O)[O-])CC1` it was 10 µM [falling, single point].
Take `N#Cc1c(N)n(-c2cccc(O)c2)c2nc3ccccc3nc12`: the AC50 under setting [1] was 20 µM [rising, single point].
Same read-out and setting: in the case of `CCC(=O)Nc1nc(=S)ss1` it was 29.1 µM [rising, single point]; in that of `CCc1c(C(=O)Nc2ccc(C)c(C)c2)[nH]c(C)c1C(C)=O`, 3.55 µM [rising, partial curve, poor fit]; in that of `COc1cc(/C=C(\C#N)c2nc3ccccc3n2C)cc(OC)c1O`, 2.82 µM [rising, partial curve, poor fit].
`O=C(Nc1nccs1)C1CCN(S(=O)(=O)c2c(Cl)cccc2Cl)CC1`: the AC50 under setting [1] is 8.2 µM [falling, partial curve].
On the same count and under the same terms, the result for `Nc1c(-c2ccccc2)cnc2ncnn12` reads 3.55 µM [rising, single point].
For `O=C(CNC(=O)c1ccco1)N=Nc1c(O)n(CCc2ccccc2)c2ccccc12`, the AC50 reads like this: under setting [1], 3.55 µM [rising, partial curve]; under setting [2], 2.82 µM [falling, full curve].
For `Fc1cc(Cl)c(OCc2noc(-c3ccsc3)n2)c(Cl)c1`, the concentration at half-maximal activity (AC50) under setting [1] was 35.5 µM [rising, single point].
For `Cc1nc2c(F)c(F)c(C(F)(F)F)c(F)c2[nH]1`, the AC50 under setting [1] is 0.631 µM [falling, partial curve, poor fit].
`COc1ccc2c(c1)CCc1sc(NC(=O)c3ccco3)nc1-2`: the AC50 under setting [1] was 29.1 µM [falling, single point].
Same read-out and setting: the result for `COCCN(CCOC)Cc1c(C)[nH]c2ccccc2c1=O` reads 5.8 µM [falling, partial curve, poor fit]; that for `O=C(NC1CCCCC1)C1CCN(c2nnnn2-c2ccccc2)CC1`, 15.8 µM [rising, partial curve].
As to `O=C(Nc1ccc2c(c1)OCO2)[C@@H]1CCCN1S(=O)(=O)c1cccc2cccnc12`, the AC50 under setting [1] was 2.31 µM [rising, single point].
On to `CC(C)c1ccc(NC(=O)c2cccc(Br)c2)cc1`, for which the AC50 under setting [1] was 35.5 µM [falling, single point].
Still for that read-out and setting: in the case of `CN1CCN(C(=O)c2cccc(COc3cc(Cl)ccc3Cl)c2)CC1` it was 9.2 µM [rising, partial curve].
Consider `COc1cccc(CN(C(=O)c2ccco2)C2CCS(=O)(=O)C2)c1` (centres undefined), for which the concentration at half-maximal activity (AC50) under setting [1] was 0.794 µM [rising, full curve, poor fit].
Same read-out and setting: in the case of `Cc1cc(C(C)(C)C)nc2[nH]n(-c3ccccc3)c(=O)c12` it was 1.64 µM [falling, full curve]; in that of `Cc1ccccc1CSCC(=O)c1c(N)n(CC(C)C)c(=O)n(C)c1=O`, 29.1 µM [rising, single point].
Same read-out and setting: the result for `NC(=O)c1ccc(SCC(=O)OCC(=O)N2CCN(C(=O)c3ccco3)CC2)c([N+](=O)[O-])c1` reads 23.1 µM [rising, partial curve, poor fit].
On the same count and under the same terms, in the case of `O=C(COC(=O)COc1ccccc1)Nc1ncc([N+](=O)[O-])s1` it was 10.3 µM [falling, partial curve].
On to `Cc1[nH]c2ccc(OC(F)(F)F)cc2c1CCN1C(=O)c2ccc(C(=O)O)cc2C1=O`, for which the AC50 is, setting by setting: under setting [1], 35.5 µM [falling, single point]; under setting [2], 12.6 µM [rising, partial curve, poor fit].
`COc1ccccc1Nc1nnc(SCc2cc(=O)n3cc(C)ccc3n2)s1`: the AC50 is 3.26 µM [falling, partial curve, poor fit] under setting [1] and 25.9 µM [falling, partial curve, poor fit] under setting [2].
On to `Cc1cccc2c1CC(C)(C)N=C2C1=C(O)CCCC1=O`, for which the AC50 under setting [1] was 15.8 µM [falling, single point].
The same measure, in the same setting: the result for `Cc1ccc(Cn2nc(C)c(/C=N/NC(=O)c3cccnc3)c2C)cc1` reads 35.5 µM [falling, partial curve, poor fit]; that for `COc1cc(C(=O)Nc2nccs2)c(Br)c(OC)c1OC`, 6.51 µM [falling, single point].
As for `Cc1cc(NC(=O)CCC2CCCCC2)no1`, the AC50 under setting [1] was 1.3 µM [falling, full curve].
As to `COc1ccccc1C(=O)NCCCn1cc(Br)c(C)n1`, under setting [1], the concentration at half-maximal activity (AC50) is 32.6 µM [rising, single point].
As to `COc1ccccc1Nc1nnc(SCC(=O)N2CCCC2)s1`, the half-maximal activity concentration (AC50) under setting [1] is 10 µM [falling, partial curve, poor fit].
Regarding `CCOC(=O)c1c(C)[nH]c(C(=O)COC(=O)CNC(=O)c2ccccc2Cl)c1C`, the concentration at half-maximal activity (AC50) under setting [1] is 29.1 µM [rising, single point].
For `COc1ccc(NC(=O)C2CCCCN2N)cc1OCC(C)C` (centres undefined), under setting [1], the AC50 is 29.1 µM [falling, single point].
Consider `O=C(NCc1cn2ccsc2n1)c1cccc(C(F)(F)F)c1`, for which the AC50 under setting [1] was 11.6 µM [rising, partial curve].
Same read-out and setting: in the case of `O=C(CN1C(=O)CSc2ccc(S(=O)(=O)N3CCCCC3)cc21)NCc1cccnc1` it was 6.51 µM [falling, partial curve, poor fit]; in that of `CCCN(CCC)C1CC(=O)N(Cc2ccccc2)C1=O` (centres undefined), 17.8 µM [falling, single point]; in that of `CCOC(=O)C1(CCCc2ccccc2)CCN(C(=O)CCc2cnccn2)CC1`, 3.55 µM [rising, full curve, poor fit].
Turning to `CCN(CC)CCCN(C(=O)c1ccc(OC)cc1)c1nc(-c2ccc(OC)cc2)cs1`, the AC50 reads like this: under setting [1], 28.2 µM [falling, single point]; under setting [2], 2.82 µM [rising, full curve, poor fit].

The record behind these values is PubChem BioAssay AID493014 (National Center for Advancing Translational Sciences (NCATS), 2011).
